Results are given in words; binding and its absence hold for the method and conditions named. Binding seen in cells or lysates may run through a third protein. Some entries that bind do so weakly or less than the wild type.
Target: neurotensin receptor subtype 1 (NTS1R) (UniProt P30989)
Test: split reporter; enzyme complementation (DiscoveRx PathHunter): HEK 293 cells stably expressing EA-β-arrestin-2, transfected with a ProLink-tagged receptor with or without untagged NTS1R (cDNA 1:3); 5 h with agonist (quinpirole, NT(8-13), bivalent ligands), chemiluminescence

binding: binds
Substance: EA-tagged β-arrestin-2 fusion protein (from UniProt P32121 1-409)
